Results are given in words; binding and its absence hold for the method and conditions named. Some binding calls cover weakened binding; strength is not graded here.
Legend:
[1] = target: Acyl Carrier Protein Synthase (ACPS) from B. subtilis, mutant with proline instead of glutamine at residue 96 (B. subtilis) (UniProt P96618); test: sedimentation equilibrium analytical ultracentrifugation, pH 6.4, 25 deg C
[2] = target: Acyl Carrier Protein Synthase (ACPS) from B. subtilis, mutant with proline instead of glutamine at residue 96 (B. subtilis) (UniProt P96618); test: X-ray crystal structure, P21 form
[3] = target: Acyl Carrier Protein Synthase (ACPS) from B. subtilis, mutant with proline instead of glutamine at residue 96 (B. subtilis) (UniProt P96618); test: X-ray crystal structure of the ACPS-CoA complex, R3 form
[4] = target: Acyl Carrier Protein Synthase (ACPS) from B. subtilis, mutant with proline instead of glutamine at residue 96 (B. subtilis) (UniProt P96618); test: 15% non-reducing denaturing gels before and after centrifugation

Measured: binding

B1: Acyl Carrier Protein Synthase (ACPS) from B. subtilis, mutant with proline instead of glutamine at residue 96 (enzyme, not shown: small tags and cut ends)
chain: MIYGIGLDITELKRIASMAGRQKRFAERILTRSELDQYYELSEKRKNEFLAGRFAAKEAFSKAFGTGIGRQLSFQDIEIRKDQNGKPYIICTKLSPAAVHVSITHTKEYAAAQVVIERLSS
binds: all assays above
